For one substance, binding results are on record in paper doi:10.1101/816264.

No constants are given. Whether binding was seen depends on the method and setting. In cells and extracts the contact can be indirect. Some results given as binding are weak or reduced against the parent protein; the word gives no strength.

The target of the assay is T1, hASIC1a with AzF at Glu177 (human) (UniProt P78348).
T1 sequence (chain, 4-azido-L-phenylalanine (AzF) at position 177): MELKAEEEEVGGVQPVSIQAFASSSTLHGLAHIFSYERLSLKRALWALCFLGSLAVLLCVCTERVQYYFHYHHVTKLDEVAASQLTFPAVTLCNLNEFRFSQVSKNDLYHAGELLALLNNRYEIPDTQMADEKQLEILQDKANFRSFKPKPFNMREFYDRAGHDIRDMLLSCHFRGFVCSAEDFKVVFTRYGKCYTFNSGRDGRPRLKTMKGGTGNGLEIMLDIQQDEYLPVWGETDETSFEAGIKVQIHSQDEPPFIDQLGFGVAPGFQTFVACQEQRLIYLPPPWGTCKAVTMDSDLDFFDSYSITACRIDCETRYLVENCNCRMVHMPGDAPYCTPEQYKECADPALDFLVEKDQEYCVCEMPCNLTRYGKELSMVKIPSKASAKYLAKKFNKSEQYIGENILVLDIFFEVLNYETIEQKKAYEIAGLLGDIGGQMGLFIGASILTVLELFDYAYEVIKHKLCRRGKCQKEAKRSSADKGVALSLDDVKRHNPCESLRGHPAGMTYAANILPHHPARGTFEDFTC
The assay is described as follows: cross-linking.

For the substance “big dynorphin (from UniProt P01213 207-238) (peptide)”, the binding entry was “binds”.
